PMC9997211
These are yes or no findings as the source states them, for the method shown. In cells and extracts the contact can be indirect.

Biological target: T1, ZEB1 (WT), zinc finger E-box binding homeobox 1 (UniProt P37275)
T1 sequence: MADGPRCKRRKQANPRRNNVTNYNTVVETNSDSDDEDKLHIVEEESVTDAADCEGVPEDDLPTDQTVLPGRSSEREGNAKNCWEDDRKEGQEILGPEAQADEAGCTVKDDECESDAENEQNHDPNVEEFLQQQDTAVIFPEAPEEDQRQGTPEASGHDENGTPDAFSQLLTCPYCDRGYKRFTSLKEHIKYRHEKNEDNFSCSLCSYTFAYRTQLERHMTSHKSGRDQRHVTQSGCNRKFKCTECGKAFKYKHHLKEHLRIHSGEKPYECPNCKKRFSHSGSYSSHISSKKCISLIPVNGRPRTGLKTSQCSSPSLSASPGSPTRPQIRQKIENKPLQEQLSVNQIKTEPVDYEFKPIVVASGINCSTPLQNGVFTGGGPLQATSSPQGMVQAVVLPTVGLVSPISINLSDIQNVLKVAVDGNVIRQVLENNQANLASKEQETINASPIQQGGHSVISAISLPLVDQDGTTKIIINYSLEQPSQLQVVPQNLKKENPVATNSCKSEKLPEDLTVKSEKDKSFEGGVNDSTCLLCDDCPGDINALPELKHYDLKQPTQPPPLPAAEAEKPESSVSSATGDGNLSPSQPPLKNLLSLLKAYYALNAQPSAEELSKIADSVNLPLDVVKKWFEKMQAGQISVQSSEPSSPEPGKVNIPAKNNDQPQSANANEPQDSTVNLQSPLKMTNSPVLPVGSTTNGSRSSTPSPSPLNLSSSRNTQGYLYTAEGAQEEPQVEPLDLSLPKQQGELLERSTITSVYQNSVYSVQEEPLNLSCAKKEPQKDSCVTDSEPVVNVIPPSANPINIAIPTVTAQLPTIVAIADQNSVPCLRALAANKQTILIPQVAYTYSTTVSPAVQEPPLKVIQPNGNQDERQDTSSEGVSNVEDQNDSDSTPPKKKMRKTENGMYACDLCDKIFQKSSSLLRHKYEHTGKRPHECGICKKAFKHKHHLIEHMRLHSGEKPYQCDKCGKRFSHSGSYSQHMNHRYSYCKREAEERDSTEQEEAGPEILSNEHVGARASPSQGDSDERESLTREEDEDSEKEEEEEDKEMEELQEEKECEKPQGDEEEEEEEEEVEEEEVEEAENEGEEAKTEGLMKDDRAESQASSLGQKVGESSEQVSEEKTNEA
Test: co-IP; lysates of HEK293T cells transfected with combinations of two tagged proteins; immunoprecipitation with anti-HA tag antibody-conjugated agarose beads, western blotting with tag antibodies

binding: no binding
Substance: MutZEB1 (ΔZn) (from UniProt P37275)
